Assay results reported in patent publication US10941152B2, “Pyrazole compounds as modulators of FSHR and uses thereof” (TOCOPHERX, INC., priority 2014, dated 2021).
The structures given here were assigned with low confidence; some may be wrong.

Chains of the proteins cited; added tags and fusions are not shown. Residues count along the entry.
UniProt P23945, 18-695 limits assumed: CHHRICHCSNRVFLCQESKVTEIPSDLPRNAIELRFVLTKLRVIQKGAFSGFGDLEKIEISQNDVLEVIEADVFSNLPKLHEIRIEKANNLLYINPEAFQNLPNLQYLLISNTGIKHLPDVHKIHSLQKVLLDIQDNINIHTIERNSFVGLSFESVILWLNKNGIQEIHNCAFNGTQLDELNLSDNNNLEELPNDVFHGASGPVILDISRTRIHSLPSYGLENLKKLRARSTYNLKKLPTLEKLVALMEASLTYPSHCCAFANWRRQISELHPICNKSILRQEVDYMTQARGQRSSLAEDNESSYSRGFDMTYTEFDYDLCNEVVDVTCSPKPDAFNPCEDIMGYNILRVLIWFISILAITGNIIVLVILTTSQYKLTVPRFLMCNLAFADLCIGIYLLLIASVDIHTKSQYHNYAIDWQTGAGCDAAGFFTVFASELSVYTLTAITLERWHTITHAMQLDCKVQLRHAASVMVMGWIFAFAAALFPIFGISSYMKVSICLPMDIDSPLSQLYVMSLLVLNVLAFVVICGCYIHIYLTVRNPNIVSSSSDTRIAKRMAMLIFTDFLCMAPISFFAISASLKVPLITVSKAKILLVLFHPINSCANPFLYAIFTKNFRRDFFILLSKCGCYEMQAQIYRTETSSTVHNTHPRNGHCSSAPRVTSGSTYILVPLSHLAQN

Molecular target: FSHR (Homo sapiens, UniProt P23945)
Assay: EC50 of cyclic AMP production in CHO FSHR cells + EC20 FSH (Assay A)
Conditions: read-out: Assay A; cyclic AMP production in CHO FSHR cells + EC20 FSH (0.265 pM), HTRF
Procedure: Example 24. EC50 of cyclic AMP production in CHO FSHR cells+EC20 FSH (Assay A)
2500 Cho-FSHR-LUC-1-1-43 cells were plated per well in 5 al of phenol red free DMEM/F12+1% FBS. Cells were plated in 384 well, solid white low volume plates (Greiner 784075) by Multidrop. Cells were assayed by adding 100 al of 2×EC20 FSH/IBMX in DMEM/F12+0.1% BSA) by Multidrop to 2 al of test compound stamped in 384 well plates (compounds are diluted 1:50). The final FSH concentration was 0.265 pM, and the final IBMX concentration was 200 μM. The compound plate map was as follows: Column 1: 2 μl of DMSO; Column 2: 2 μl of DMSO; Columns 3-12 and 13-24: 2 μl of test compound, diluted 1:4 in 100% DMSO, or 2 μl of FSH, diluted 1:4 in DMEM/F12+0.1% BSA. The starting concentration for FSH was 50 nM (final concentration was 0.5 nM). Furthermore, Column 23 contained 2 μl of EC100 FSH reference (100×) (diluted in DMEM/F12+0.1% BSA) at a final concentration of 0.5 nM, and Column 24 contained 2 μl of 1 mM AS707664/2 reference compound 2. 5 μl of compound+EC20 FSH mixture were transferred to cell plates (1:2 dilution into 5 μl of cell media) The plates were incubated at 37° C. for 1 h. […] The plates were read on Envision using the cAMP HTRF—low volume 384 well protocol. The readout was the calculated fluorescence ratio (665 nm/620 nm). […]

EC50: 0.01 to 0.1 µM
SMILES: COc1cc2c(cc1-c1cnn(CC(N)=O)c1C)-c1c(c(C(=O)N(C)C(C)(C)C)nn1-c1cc(Cl)cc(Cl)c1)CO2
